The results in this text go back to publication PMC10474030.

This assay has as its target FLAG-tagged AMPKα. Nature of the assay: co-IP; HepG2 cells transfected with FLAG-tagged AMPKα and HA-tagged Thrap3 WT or deletion mutants; immunoprecipitated with an anti-FLAG antibody; immunoblot for FLAG and HA.

No constants are given. Whether binding was seen depends on the method and setting. In cells and extracts the contact can be indirect. A result given as binding can be weak or reduced; the word gives no strength. Sequences can lack the tags named with a protein.

B1: HA-tagged Thrap3 wild type (protein, UniProt Q9Y2W1 1-955)
chain: MSKTNKSKSGSRSSRSRSASRSRSRSFSKSRSRSRSLSRSRKRRLSSRSRSRSYSPAHNRERNHPRVYQNRDFRGHNRGYRRPYYFRGRNRGFYPWGQYNRGGYGNYRSNWQNYRQAYSPRRGRSRSRSPKRRSPSPRSRSHSRNSDKSSSDRSRRSSSSRSSSNHSRVESSKRKSAKEKKSSSKDSRPSQAAGDNQGDEAKEQTFSGGTSQDTKASESSKPWPDATYGTGSASRASAVSELSPRERSPALKSPLQSVVVRRRSPRPSPVPKPSPPLSSTSQMGSTLPSGAGYQSGTHQGQFDHGSGSLSPSKKSPVGKSPPSTGSTYGSSQKEESAASGGAAYTKRYLEEQKTENGKDKEQKQTNTDKEKIKEKGSFSDTGLGDGKMKSDSFAPKTDSEKPFRGSQSPKRYKLRDDFEKKMADFHKEEMDDQDKDKAKGRKESEFDDEPKFMSKVIGANKNQEEEKSGKWEGLVYAPPGKEKQRKTEELEEESFPERSKKEDRGKRSEGGHRGFVPEKNFRVTAYKAVQEKSSSPPPRKTSESRDKLGAKGDFPTGKSSFSITREAQVNVRMDSFDEDLARPSGLLAQERKLCRDLVHSNKKEQEFRSIFQHIQSAQSQRSPSELFAQHIVTIVHHVKEHHFGSSGMTLHERFTKYLKRGTEQEAAKNKKSPEIHRRIDISPSTFRKHGLAHDEMKSPREPGYKAEGKYKDDPVDLRLDIERRKKHKERDLKRGKSRESVDSRDSSHSRERSAEKTEKTHKGSKKQKKHRRARDRSRSSSSSSQSSHSYKAEEYTEETEEREESTTGFDKSRLGTKDFVGPSERGGGRARGTFQFRARGRGWGRGNYSGNNNNNSNNDFQKRNREEEWDPEYTPKSKKYYLHDDREGEGSDKWVSRGRGRGAFPRGRGRFMFRKSSTSPKWAHDKFSGEEGEIEDDESGTENREEKDNIQPTTE
For the molecule B1, the binding entry is “binds”.
